# Results from one PubChem assay

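A cell-based FRET test of anthrax lethal toxin entry, tracked through the 460 nm emission signal; the cell line is not named here.
Each compound was tested as a concentration series from about 0.0005 to 40 µM.
The number is the fitted AC50 of the 460 nm signal alone; lower values mean a more potent effect. A falling signal goes with compounds filed as inhibitors or cytotoxic, a rising one with activators or fluorescent compounds (inferred from the filed classes).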

Values are in nM.
Common to all entries: measured here: 460 nm channel.
This is a side read-out of the assay, for part of the compounds, not drawn at random.
Potencies fitted to partial, single-point or poorly fitting curves are rough.
The first word of each remark tells which way the curve ran; it can be opposite to the aim of the assay.

compound | AC50 (nM) | curve as filed
Cc1csc(NC(=O)CSc2nnc(Cc3cccn3C)n2-c2ccc(F)cc2)n1 | 3162 | falling, single point
COCCn1c(NCc2ccc(C)cc2)nc2c1c(=O)[nH]c(=O)n2C | 5012 | rising, single point
COc1ccc(-n2cnnc2)cc1 | 31.62 | falling, partial curve
O=C(O)[C@@H]1[C@@H](C(=O)NCc2ccccn2)[C@@H]2C=C[C@@H]1O2 | 1000 | rising, single point
CCCOC(=O)c1ccc(Oc2cn[nH]c2-c2ccc(OCC)cc2O)cc1 | 12589 | falling, partial curve
c1ccc(N2CCCC3(CCNCC3)C2)nc1 | 5012 | falling, single point
CC(C)n1nnnc1C(c1ccc(F)cc1)N1CCN(C2CCCC2)CC1 (centres unmarked) | 7943 | falling, partial curve
O=C(c1ccco1)N1CCC[C@@]2(CCN(C(c3ccccc3)c3ccccc3)C2)C1 | 10000 | rising, partial curve, poor fit
CC1(C)N=C(/C=N/O)C=[N+]1[O-] | 10 | falling, full curve, poor fit
Cc1cc(-c2nnco2)c(C)n1-c1ccc(F)cc1 | 31622 | falling, single point
CCCC(c1nnnn1Cc1ccco1)N1CCN(c2cc(Cl)ccc2C)CC1 (centres unmarked) | 10000 | falling, partial curve
C=CCOc1ccc(/C(O)=C2\C(=O)C(=O)N(CCCOC)C2c2ccc(O)c(OC)c2)cc1 (centres unmarked) | 39.81 | rising, full curve, poor fit
Cn1cccc1CNCCc1ccccc1F | 39.81 | falling, full curve
CCCn1c(=O)c2ccccc2n2c(Sc3nnnn3-c3ccccc3)nnc12 | 1000 | rising, partial curve
Cc1cccc(CNc2ncncc2-c2cccc(C#N)c2)c1 | 158.5 | falling, full curve
COc1ccc(CCNC(=O)CSc2nc(N)c(C#N)c(-c3cccs3)c2C#N)cc1OC | 12589 | rising, single point
CCN(C(C)=O)c1nc(CSc2nnc(NC(C)C)s2)cs1 | 5012 | rising, single point
CCOC(=O)N1CCC(c2cc(=O)n3[nH]c(C)c(-c4ccc(F)cc4)c3n2)CC1 | 3162 | rising, full curve, poor fit
CC1=CC(C)(C)N=C(Nc2ccc(C)cc2)S1 | 10000 | falling, partial curve
N=C(N)c1ccc(-c2ccc(-c3ccc(C(=N)N)cc3)o2)cc1 | 5012 | rising, single point
CC[C@H]1[C@@H]2C[C@@H]3[C@@H]4N(C)c5ccccc5[C@@]45C[C@@H]([C@H]2[C@@H]5O)N3[C@@H]1O | 1000 | falling, full curve
CC1CCCCN1CCCn1c(=S)[nH]c2ccccc2c1=O (centres unmarked) | 1000 | falling, full curve, poor fit
NCCCCCCNS(=O)(=O)c1ccc2c(Cl)cccc2c1 | 12589 | falling, partial curve
C[C@@]12C[C@H](O)[C@@H]3[C@H](CCC4=CC(=O)CC[C@]43C)[C@H]1CC[C@@H]2c1csc(-c2ccccc2)n1 | 3162 | falling, partial curve, poor fit
CN(Cc1ccccc1)c1ncnc2c1cnn2-c1ccccc1 | 3162 | rising, partial curve
CCCc1[nH]nc2c1C1(CCN(C(=O)OCc3ccccc3)CC1)C(C#N)=C(N)O2 | 15848 | rising, single point
CN1CC2=Cc3ccccc3OC23Oc2ccccc2C=C3C1 | 2512 | rising, partial curve, poor fit
c1ccc2c(c1)Cc1cc3ccccc3nc1-2 | 5012 | falling, single point
CCCOc1ccc(N2C(=O)CC(N(O)c3ccccc3)C2=O)cc1 (centres unmarked) | 158.5 | falling, full curve, poor fit
NC(N)=NCc1cccc(I)c1 | 12589 | falling, single point
CCCc1[nH]nc2c1C(CCc1ccccc1)C(C#N)=C(N)O2 (centres unmarked) | 5012 | rising, single point
O=C1C(c2ccccn2)=[N+]([O-])c2ccccc21 | 1259 | falling, full curve
CCOc1ccc(Nc2oc(-c3cccs3)nc2C#N)cc1 | 25118 | rising, single point
C=CC(C)(O)CCCC(C)CCCC(C)CCCC(C)C (centres unmarked) | 15848 | falling, partial curve

Some entries from above, unchanged:

compound	AC50 (nM)	curve as filed
CCN(C(C)=O)c1nc(CSc2nnc(NC(C)C)s2)cs1	5012	rising, single point
CC(C)n1nnnc1C(c1ccc(F)cc1)N1CCN(C2CCCC2)CC1 (centres unmarked)	7943	falling, partial curve

From PubChem BioAssay record AID912 (NCATS, 2007).